According to PubChem BioAssay AID1117319 (Southern Research Institute, 2015):
Where “and” joins values, the source holds several entries; their conditions need not be identical. Equal entries are not always repeated. The campaign covered roughly 260,000 compounds. About 1,500 (0.58%) were called active. This list was built around the results that the source calls inconclusive (neither active nor inactive); the mix of calls is not that of the screen.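 The calls were made as follows: active = inhibition above a set limit at one or more doses, reproduced on every date tested; inconclusive = results disagree between test dates, or hit never tested in dose response; inactive = the rest.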

By UniProt entry, the sequences of proteins in these tests, tags left out. Where a name states a change or a piece, a line headed by the entry shows the natural chain unless it says otherwise.
UniProt P69720: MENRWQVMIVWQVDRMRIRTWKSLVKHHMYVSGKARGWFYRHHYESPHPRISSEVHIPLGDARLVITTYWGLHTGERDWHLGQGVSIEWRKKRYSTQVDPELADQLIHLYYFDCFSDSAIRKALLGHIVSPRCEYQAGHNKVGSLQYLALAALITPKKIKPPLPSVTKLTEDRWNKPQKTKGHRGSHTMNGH
UniProt P69721: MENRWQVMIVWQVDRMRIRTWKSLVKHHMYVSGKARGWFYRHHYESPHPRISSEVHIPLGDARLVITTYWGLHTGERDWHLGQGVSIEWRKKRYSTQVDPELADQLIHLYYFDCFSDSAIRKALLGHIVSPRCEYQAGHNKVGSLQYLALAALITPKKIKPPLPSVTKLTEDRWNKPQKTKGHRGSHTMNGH
UniProt P69722: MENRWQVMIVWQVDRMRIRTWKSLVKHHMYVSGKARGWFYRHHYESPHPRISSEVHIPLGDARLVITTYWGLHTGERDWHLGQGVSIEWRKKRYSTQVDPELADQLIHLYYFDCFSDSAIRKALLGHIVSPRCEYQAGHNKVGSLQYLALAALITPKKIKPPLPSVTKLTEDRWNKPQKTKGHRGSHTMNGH
UniProt P69723: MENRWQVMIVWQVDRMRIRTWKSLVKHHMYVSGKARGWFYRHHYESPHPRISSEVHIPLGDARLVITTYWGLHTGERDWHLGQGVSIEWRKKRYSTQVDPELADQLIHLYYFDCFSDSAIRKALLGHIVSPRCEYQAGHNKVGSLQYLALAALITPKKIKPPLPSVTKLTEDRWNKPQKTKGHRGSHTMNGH
UniProt Q9HC16: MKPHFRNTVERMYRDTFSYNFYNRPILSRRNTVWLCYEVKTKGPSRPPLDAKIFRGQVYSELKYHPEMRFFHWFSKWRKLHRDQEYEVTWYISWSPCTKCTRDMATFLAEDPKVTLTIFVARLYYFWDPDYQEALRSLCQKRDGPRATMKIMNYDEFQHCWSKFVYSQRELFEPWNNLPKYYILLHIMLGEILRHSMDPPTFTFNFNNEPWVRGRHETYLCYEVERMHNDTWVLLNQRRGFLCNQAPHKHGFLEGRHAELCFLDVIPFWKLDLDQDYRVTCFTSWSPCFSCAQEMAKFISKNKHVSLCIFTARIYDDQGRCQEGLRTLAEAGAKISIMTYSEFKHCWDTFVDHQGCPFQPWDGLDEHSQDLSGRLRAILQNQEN

target: Virion infectivity factor (Human immunodeficiency virus type 1 group M subtype B (isolate BH10)) + Virion infectivity factor (Human immunodeficiency virus type 1 group M subtype B (isolate BRU/LAI)) + Virion infectivity factor (Human immunodeficiency virus type 1 group M subtype B (isolate PCV12)) + Virion infectivity factor (Human immunodeficiency virus type 1 group M subtype B (isolate HXB2)) + DNA dC->dU-editing enzyme APOBEC-3G (Homo sapiens) (UniProt P69720+P69721+P69722+P69723+Q9HC16); test: inhibitors of Vif binding to APOBEC3G peptide, primary screen, biochemical, TR-FRET, GST-Vif 1-94, biotin-A3G peptide, dose response retest (AID 1117319); details: stronger effect = higher value;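 also: Vif residues 1-94 fused to GST binding biotinylated APOBEC3G peptide 110-148; 0% = full assay without inhibitor and 100% = GST in place of GST-Vif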

Compound | inhibition
COc1ccc(NC(=O)c2cc(S(=O)(=O)N(C)C)ccc2N2CCCC2)cc1Cl | inconclusive: 38%
CCn1c(SCC(=O)NC(=O)NCc2ccco2)nnc1-c1cccs1 | inactive: -5.61%
CNC(=S)Nc1ccc2nc(C)c(C)nc2c1 | inconclusive: 40.2%
Cc1ccc(NC(=O)CCN2CCN(C/C=C/c3ccccc3)CC2)cc1 | inconclusive: 34.7%
S=C(Nc1ccc2c(c1)OCO2)Nc1ccc2c(c1)OCO2 | inconclusive: 35%
CC(NC(=O)c1ccc(Cl)cc1)c1nnc(SCc2ccc([N+](=O)[O-])cc2)n1C (centres undefined) | inconclusive: 60.7%
Cc1nc2nc[nH]n2c(=O)c1NC(=O)c1cccc(OCC(C)C)c1 | inconclusive: 44.5%
COc1cc(OC)cc(C(=O)Nn2c(C)nc3ccccc3c2=O)c1 | inconclusive: 43.4%
O=C(NCCCn1ccnc1)/C(=C\c1cccnc1)NC(=O)c1ccco1 | inconclusive: 45.2%
O=C(CNC(=O)c1cccc(F)c1)OCC(=O)N1CCCCC1 | inconclusive: 33.8%
O=C(Oc1ccccc1O)c1cccc2ccccc12 | inconclusive: 53.2%
FCCCOc1ccc(/C=N/OCc2c(Cl)cccc2Cl)cc1 | inconclusive: 34.6%
CCOC(=O)c1c(NC(=O)CSc2nnnn2-c2ccc(OC)cc2)sc(C)c1C | inconclusive: 39%
Cc1nn(Cc2ccccc2)c2sc(C(=O)NCc3cccnc3)cc12 | inconclusive: 41.1%
CCOc1cc(CNc2ccc(N(C)C)cc2)cc(Br)c1OCC(=O)NC(C)(C)C | inconclusive: 42%
N#Cc1c(NC(=O)c2ccncc2)sc2c1CCC2 | inconclusive: 41.5%
COc1ccc(COc2cc(-c3cccc(OC)c3)nc3ccc(NC(=O)c4cccnc4)cc23)cc1 | inconclusive: 42.9%
O=[N+]([O-])c1cccc(/C([O-])=C(/C(=S)Nc2cccc3ccccc23)[n+]2ccccc2)c1 | inconclusive: 39.4%
CC1CC(C(F)(F)C(F)(F)F)n2nc(C(=O)O)cc2N1 (centres undefined) | inconclusive: 34.5%
Cc1ccc2[nH]c(=O)c(CN(CC3CCCO3)S(=O)(=O)c3cccc4nsnc34)cc2c1 (centres undefined) | inconclusive: 51.1%
O=c1[nH]c2cc3c(cc2cc1CN(CCc1ccccc1)Cc1nnnn1C1CCCC1)OCCO3 | inconclusive: 57.7%
COC(=O)C1=C(N)OC2=C(C(=O)CC(C)(C)C2)C1c1cccs1 (centres undefined) | inactive: 12.5%
COc1ccc(NC(=O)c2cccc(Oc3ccc([N+](=O)[O-])cc3Cl)c2)cc1 | inconclusive: 38.2%
Cc1cccc(N2CCN(C(=O)Cn3cccc3)CC2)c1C | inconclusive: 26.7%
CC(=O)N(CCC(Cc1ccccc1)c1ccc2c(c1)OCO2)Cc1ccc(Cl)cc1 (centres undefined) | inconclusive: 33.2%
CCCC(=O)c1cc2c(cc1NC(=O)c1cccs1)OCCO2 | inconclusive: 50%
CC1(C)CC(=O)C2=C(C1)OC(N)=C(C#N)C2c1ccccc1 (centres undefined) | inactive: 3.85%

Compound | inhibition
O=C(Cn1c(=O)n(Cc2ccco2)c(=O)c2c3c(sc21)CCCCC3)Nc1ccccc1 | inconclusive: 39.4% and inconclusive: 33.3%
CN1C(=O)/C(=C/c2ccco2)SC1=Nc1ccc(N2CCOCC2)cc1 | inactive: 25%
O=C(CN1CCN(c2ccc(O)cc2)CC1)Nc1cc(S(=O)(=O)N2CCCCC2)ccc1Cl | inconclusive: 45.6%
CCOC(=O)C(CC(=O)O)N1CCCCC1 (centres undefined) | inactive: -2.07%
Cn1c(=O)c2cc(S(=O)(=O)N3CCN(c4cccc(C(F)(F)F)c4)CC3)ccc2n(C)c1=O | inconclusive: 37.2%
CCOC(=O)c1sc(NC(=O)c2c(C)nn(Cc3ccccc3)c2C)cc1C | inconclusive: 56.6%
Cc1nonc1NC(=O)Nc1cccnc1 | inconclusive: 44.7%
CCOc1ccc(CCNC(=O)c2cccc(S(=O)(=O)N3CCCCC3)c2)cc1OCC | inactive: -3.3%
COc1ccc(C2CC(c3ccccc3)=NN2C(=O)COC(=O)c2cccnc2)cc1 (centres undefined) | inconclusive: 34.3%
COc1cc(C=C2C(=O)c3ccccc3C2=O)ccc1O | inactive: -0.66%
COc1ccc(-c2csc(Nc3ccccc3)[n+]2CC(O)c2ccc([N+](=O)[O-])cc2)cc1 (centres undefined) | inconclusive: 56.1%
CC(NS(=O)(=O)c1ccc(OCC(=O)Nc2cccc([N+](=O)[O-])c2)cc1)c1ccccc1 (centres undefined) | inconclusive: 47.5%
CC(=O)c1cccc(NC(=O)Cn2cnc(S(=O)(=O)N3CCC(C)CC3)c2)c1 | inconclusive: 36.3%
CC(C)=N/N=C(/c1ccc([N+](=O)[O-])cc1)C12CN3CN(CN(C3)C1)C2 | inconclusive: 35.8%
CC(Oc1ccccc1)C(=O)NC1=NCCS1 (centres undefined) | inconclusive: 44.1%
CC(C)COc1ccc(/C(O)=C2/C(=O)C(=O)N(CCN(C)C)C2c2ccncc2)cc1 (centres undefined) | inconclusive: 43.8%
O=C(/C=C/c1ccc(Br)cc1)c1ccc(NC(=O)c2ccco2)cc1 | inconclusive: 52.9%
COc1ccc(OC)c(/C=N/NC(=O)CN2CCSCC2)c1 | inconclusive: 42.6%
CCN(CC)S(=O)(=O)c1ccc(Cl)c(C(=O)Nc2cc(C)nn2-c2ccccc2)c1 | inconclusive: 33.1%
CC1CC(C)CN(CCCNC(=O)c2csc3c2CCCC3)C1 (centres undefined) | inconclusive: 59.2%
COc1ccc2nc3c(cc2c1)c(NC(=O)c1cccs1)nn3CC(C)C | inconclusive: 35.7%
CC(C)CCNC(=O)C(c1ccco1)N(Cc1ccc(F)cc1)C(=O)c1snc(C(N)=O)c1N (centres undefined) | inconclusive: 58.3%
O=C(C1=C(O)C(=O)N(c2ncccn2)C1c1ccc(Cl)c(Cl)c1)c1ccco1 (centres undefined) | inconclusive: 59%
CCC(CC)=NNc1ccc(S(N)(=O)=O)cc1[N+](=O)[O-] | inconclusive: 44.4%
CCC(=O)Nc1ccc(NC(=S)NC(=O)c2oc3ccccc3c2C)cc1 | inconclusive: 36.9%
COc1cccc(C(=S)N2CCCC2)c1OC | inactive: 0.47%
CCOC(=O)c1cnn2c(C(F)(F)F)cc(-c3ccco3)nc12 | inactive: 17%

A run of entries of the results above, for reference:
Compound | inhibition
CCOC(=O)C(CC(=O)O)N1CCCCC1 (centres undefined) | inactive: -2.07%
Cn1c(=O)c2cc(S(=O)(=O)N3CCN(c4cccc(C(F)(F)F)c4)CC3)ccc2n(C)c1=O | inconclusive: 37.2%
CCOC(=O)c1sc(NC(=O)c2c(C)nn(Cc3ccccc3)c2C)cc1C | inconclusive: 56.6%
Cc1nonc1NC(=O)Nc1cccnc1 | inconclusive: 44.7%
